These are yes or no findings as the source states them, for the method shown. For part of these data: In cells and extracts the contact can be indirect. Some entries that bind do so weakly or less than the wild type. Tags and fused reporters may be left off the sequences shown.

Assay [1] concerns the target T1, AtVIH2, full-length, split-luciferase fusion (Arabidopsis thaliana) (UniProt F4J8C6).
T1 sequence: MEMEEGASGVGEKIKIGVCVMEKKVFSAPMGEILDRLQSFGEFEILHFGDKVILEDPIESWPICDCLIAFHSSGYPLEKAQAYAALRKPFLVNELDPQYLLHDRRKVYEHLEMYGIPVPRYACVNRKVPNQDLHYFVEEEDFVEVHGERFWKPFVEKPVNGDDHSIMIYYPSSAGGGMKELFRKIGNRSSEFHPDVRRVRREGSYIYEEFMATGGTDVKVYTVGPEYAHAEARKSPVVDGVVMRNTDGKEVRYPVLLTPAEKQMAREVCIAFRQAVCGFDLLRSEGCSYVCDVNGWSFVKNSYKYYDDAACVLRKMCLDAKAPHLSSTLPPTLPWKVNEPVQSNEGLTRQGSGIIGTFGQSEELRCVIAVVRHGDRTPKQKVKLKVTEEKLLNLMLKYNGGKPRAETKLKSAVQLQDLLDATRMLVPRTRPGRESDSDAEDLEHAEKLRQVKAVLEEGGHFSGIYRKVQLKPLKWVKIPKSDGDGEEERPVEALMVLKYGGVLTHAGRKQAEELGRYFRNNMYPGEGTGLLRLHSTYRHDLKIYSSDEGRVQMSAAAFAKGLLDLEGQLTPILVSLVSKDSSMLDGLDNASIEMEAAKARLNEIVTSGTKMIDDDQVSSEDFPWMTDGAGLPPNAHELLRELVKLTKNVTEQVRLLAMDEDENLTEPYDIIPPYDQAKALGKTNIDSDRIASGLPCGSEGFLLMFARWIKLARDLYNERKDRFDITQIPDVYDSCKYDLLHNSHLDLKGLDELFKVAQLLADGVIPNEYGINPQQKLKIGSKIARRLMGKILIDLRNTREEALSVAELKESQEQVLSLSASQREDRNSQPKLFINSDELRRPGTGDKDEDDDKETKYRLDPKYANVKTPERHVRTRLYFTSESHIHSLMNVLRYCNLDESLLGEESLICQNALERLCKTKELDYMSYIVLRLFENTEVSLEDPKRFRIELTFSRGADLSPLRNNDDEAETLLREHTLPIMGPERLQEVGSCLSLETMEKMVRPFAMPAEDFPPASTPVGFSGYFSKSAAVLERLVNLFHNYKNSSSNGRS
The assay is described as follows: split reporter.

In assay [2] the target is T2, AtCKA1 (residues 76-409) with C-terminal 6xHis tag (Arabidopsis thaliana) (UniProt Q08467).
T2 sequence: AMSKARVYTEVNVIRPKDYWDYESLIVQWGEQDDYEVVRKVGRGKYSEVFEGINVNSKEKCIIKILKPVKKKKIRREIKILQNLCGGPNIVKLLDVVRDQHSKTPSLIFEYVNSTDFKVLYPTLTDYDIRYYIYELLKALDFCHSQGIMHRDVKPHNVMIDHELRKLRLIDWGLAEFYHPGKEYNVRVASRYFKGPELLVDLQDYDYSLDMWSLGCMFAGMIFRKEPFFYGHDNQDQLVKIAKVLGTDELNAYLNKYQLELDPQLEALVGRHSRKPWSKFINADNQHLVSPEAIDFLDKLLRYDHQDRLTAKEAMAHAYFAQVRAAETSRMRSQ
Nature of the assay: SEC-MALS.

In assay [3] the target is T2, AtCKA1 (residues 76-409) with C-terminal 6xHis tag (Arabidopsis thaliana). Nature of the assay: pull-down.
Assay [4] has the same target. The assay is described as follows: crystal structure.
Assay [5] concerns the target AtCKB1 (residues 95-287), untagged (Arabidopsis thaliana) (UniProt P40228). The assay is described as follows: crystal structure.

B1: AtCKA1, full-length, split-luciferase fusion (enzyme, UniProt Q08467 37-409)
chain: PILRSSIVTPTARAVSEVSGCTTIDPDFLVEISDSNQTRAMSKARVYTEVNVIRPKDYWDYESLIVQWGEQDDYEVVRKVGRGKYSEVFEGINVNSKEKCIIKILKPVKKKKIRREIKILQNLCGGPNIVKLLDVVRDQHSKTPSLIFEYVNSTDFKVLYPTLTDYDIRYYIYELLKALDFCHSQGIMHRDVKPHNVMIDHELRKLRLIDWGLAEFYHPGKEYNVRVASRYFKGPELLVDLQDYDYSLDMWSLGCMFAGMIFRKEPFFYGHDNQDQLVKIAKVLGTDELNAYLNKYQLELDPQLEALVGRHSRKPWSKFINADNQHLVSPEAIDFLDKLLRYDHQDRLTAKEAMAHAYFAQVRAAETSRMRSQ
Regarding B1, in assay [1], the binding result is “binds”.

B2: Cluc-AtCKA4 (enzyme, UniProt O64816 56-432)
chain: ASLYRQHLRNQQQQHQQQQQSRVKEKSETLAQKIGKSIRRAGAPSKARVYADVNVVRPKDYWDYESLAVQWGVQDDYEVVRKVGRGKYSEVFEGIHATDNEKCVIKILKPVKKKKIKREIKILQNLCGGPNIVKLLDIVRDQQSKTPSLIFEHVNNKDFKVLYPTLSDYDVRYYIFELLKALDFCHSRGIMHRDVKPHNVMIDHEQRKLRLIDWGLAEFYHPGKEYNVRVASRYFKGPELLVDLQDYDYSLDLWSLGCMFAGMIFRKEPFFYGHDNYDQLVKIAKVLGTDELNAYLNKYRIELDPNLTSLVGRHSRKPWTKFINSENQHLAVPEAVDFVDKLLRYDHQERPTAKEAMAHPYFYPIRNAESSRTPRSQ
For B2, the binding result in assay [1] is recorded as “no binding”.

B3: AtCKA1 (residues 76-409) with C-terminal 6xHis tag (enzyme, UniProt Q08467 76-409)
chain: T2 sequence
Consider B3, for which the binding entry in assay [2] was “no binding (tested: 5 mg/mL injected)”.

B4: AtCKB1 (residues 95-287), untagged (domain or fragment, Arabidopsis thaliana, UniProt P40228 95-287, looked up)
chain: DGEDTSWISWFCNLRGNEFFCEVDDDYIQDDFNLCGLSSLVPYYEYALDLILDVESSQGEMFTEEQNELIESAAEMLYGLIHARYILTSKGLAAMLDKYKNYDFGRCPRVYCCGQPCLPVGQSDLPRSSTVKIYCPKCEDIYYPRSKYQGNIDGAYFGTTFPHLFLMTYGHLKPAKATQNYVQRVFGFKLHKP
For B4, the binding entry in assay [3], in assay [4] and in assay [5] was “binds” throughout.

Values taken from publication doi:10.1101/2025.11.27.691040 (bioRxiv, 2025).
